Changes are numbered by the printed parent chain. These are yes or no findings as the source states them, for the method shown. In cells and extracts the contact can be indirect. Some results given as binding are weak or reduced against the parent protein; the word gives no strength. Where a sequence is shown, tags or fusion partners need not be part of it.

By UniProt entry, the sequences of proteins in these tests, tags left out. Where a name states a change or a piece, a line headed by the entry shows the natural chain unless it says otherwise. Chains listed by the source or under a name are the forms on record and can include a tag or linker.
Cerulean-tagged β2B-subunit (WT) (Q08289, form named): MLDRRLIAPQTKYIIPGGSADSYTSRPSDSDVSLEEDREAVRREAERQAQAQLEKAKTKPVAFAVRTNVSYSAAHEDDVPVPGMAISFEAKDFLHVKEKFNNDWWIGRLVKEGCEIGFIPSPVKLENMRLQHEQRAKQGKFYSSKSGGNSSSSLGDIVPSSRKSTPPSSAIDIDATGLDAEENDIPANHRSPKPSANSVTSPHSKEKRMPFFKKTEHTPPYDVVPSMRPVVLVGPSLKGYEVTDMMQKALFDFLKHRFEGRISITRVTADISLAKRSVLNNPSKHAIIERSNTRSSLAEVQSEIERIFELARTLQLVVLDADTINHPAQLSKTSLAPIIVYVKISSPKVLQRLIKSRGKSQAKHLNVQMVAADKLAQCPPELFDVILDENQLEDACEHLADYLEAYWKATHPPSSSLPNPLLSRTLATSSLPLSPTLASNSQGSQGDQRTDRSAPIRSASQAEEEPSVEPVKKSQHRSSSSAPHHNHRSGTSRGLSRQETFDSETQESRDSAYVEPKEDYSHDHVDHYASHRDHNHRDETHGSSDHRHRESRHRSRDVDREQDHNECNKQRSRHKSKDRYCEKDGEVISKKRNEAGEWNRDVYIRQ

The target of the assay is Cerulean-tagged β2B-subunit (WT) (human) (UniProt Q08289). Kind of assay: FRET or BRET; flow cytometric FRET two-hybrid assay in transfected HEK293T cells, 1 d post-transfection, cycloheximide 100 μM for 2 h; Cer-tagged β2B variants with Ven-tagged partners; FRET efficiency against free Ven-tagged partner, 1:1 binding isotherm, Kd,EFF; in some samples calyculin A 100 nM for 10 min.

B1: Venus-tagged WT Rad (protein, UniProt O88667 1-308)
chain: MTLNGGSGASGSRGAGGRERDRRRGSTPWGPAPPLHRRSMPVDERDLQAALAPGSLATTAAGTRTQGQRLDWPEGSSDSLSSGGSGSEEGVYKVLLLGAPGVGKSALARIFGGIEDGPEAEAAGHTYDRSITVDGEEASLLVYDIWEEDGGCWLPGHCMAMGDAYVIVYSITDKGSFEKASELRVQLRRARQTDDVPIILVGNKSDLVRSREVSVDEGRACAVVFDCKFIETSAALHHNVQALFEGVVRQIRLRRDSKEDNARRQAGTRRRESLGKKAKRFLGRIVARNSRKMAFRAKSKSCHDLSVL
B1: the binding result is on record as “binds”.

B2: Venus-tagged 4SA-Rad (protein, UniProt O88667 1-308)
chain: B1 chain with S26A, S39A, S273A, S301A
Turning to B2, the binding entry is reported as “binds”.

(Values after article PMC9681059.)
